This is one part of the list. Further columns of the screen follow, without active or inactive calls. The list favours compounds with an active or inconclusive main result. The note in brackets gives the kind of curve behind each potency; many fits are weak.
Test: qHTS Assay to Find Inhibitors of Chronic Active B-Cell Receptor Signaling
Details: ABC-DLBCL IkBa-CBG/CBR reporter, luminescence ratio (green luciferase fused to IkBa over red control in TMD8 lymphoma cells), 4 h
Procedure, shortened: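 TMD8 ABC-DLBCL cells carrying doxycycline-inducible green luciferase fused to IkappaBalpha plus unfused red luciferase were exposed to compounds (up to 46 uM) for 4 hrs at 37C. Activity came from the overlap-corrected green/red luminescence ratio.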

[1] = measured here: CBR red luminescence, cell number
[2] = measured here: IkBa-CBG green luminescence

| Compound | AC50 [1] | AC50 [2] |
| --- | --- | --- |
| COCCCNC(=O)Cc1c(C)c2c(cc(C)c3c(C(C)(C)C)coc32)oc1=O | 35.5 µM [falling, single point] | 5.62 µM [falling, single point] |
| O=C(NC1=NCCS1)c1cc(-c2ccccc2)nn1-c1ccccc1 | 0.501 µM [rising, full curve] |  |
| O=S(=O)(c1ccccc1)c1nc(-c2ccccc2F)oc1NCc1cccnc1 | 5.01 µM [rising, full curve, poor fit] |  |
| NS(=O)(=O)c1ccc(NC(=O)c2cc(-c3cccs3)nc3ccccc23)cc1 | 1.16 µM [falling, partial curve] | 2.91 µM [rising, full curve] |
| CC1=CC(C)(C)n2c(O)c(N=NC(N)=S)c3c(C)ccc1c32 | 29.1 µM [falling, partial curve, poor fit] |  |
| CCOc1cc(C(=O)CCC(=O)OCC(=O)N2c3ccccc3NC(=O)C2(C)C)ccc1O | 29.1 µM [falling, partial curve, poor fit] |  |
| COc1ccccc1NS(=O)(=O)c1ccc2c(c1)N(C(C)=O)CC(C)S2 (centres undefined) | 14.1 µM [falling, partial curve, poor fit] |  |
| COc1ccc(NC2CCCN(C(=O)CCc3scnc3C)C2)cc1 (centres undefined) | 3.98 µM [rising, single point] |  |
| Cc1cc(NCC2CCCCC2)nc2ccccc12 | 7.94 µM [rising, partial curve, poor fit] |  |
| CCOC(=O)c1nn(-c2ccccc2C)c2nc(-c3ccc(Cl)cc3)c(C#N)c(=O)n12 | 18.4 µM [falling, single point] | 23.1 µM [rising, partial curve, poor fit] |
| C=CCOC(=O)C1=C(C)Nc2ncnn2C1c1cc(Br)ccc1F (centres undefined) | 5.62 µM [falling, full curve, poor fit] |  |
| COc1cccc(C(=O)CSc2nccn2C)c1 | 25.1 µM [falling, single point] |  |
| Cc1ccnc(NC(=O)CNC(=O)Cc2cccc3ccccc23)c1 | 10.3 µM [falling, partial curve, poor fit] |  |
| Cc1ccc(/C=C(\C#N)C(=O)Nc2cccc3ncccc23)o1 | 25.9 µM [falling, single point] |  |
| CC(C)NS(=O)(=O)c1ccc(CCC(=O)N2CCOCC2)cc1 | 0.00517 µM [falling, full curve, poor fit] |  |
| Cc1ccc(S(=O)(=O)N2CCCCC2CCNC(=O)C(=O)NCc2ccccc2)cc1 (centres undefined) | 20.6 µM [rising, partial curve] | 18.4 µM [falling, partial curve] |
| CC12CCC(=O)N1C(C(=O)Nc1ccc(SC(F)F)cc1)CS2 (centres undefined) | 29.1 µM [rising, partial curve, poor fit] |  |
| Cc1cc(Cl)ccc1OCCCC(=O)NO |  | 23.1 µM [falling, partial curve, poor fit] |
| O=C(NCCN1CCOCC1)c1ccc(Cl)cc1 | 31.6 µM [rising, single point] |  |
| CC(C)Oc1cc(NC(=O)CS(=O)CC(=O)N(C)C)c(Cl)cc1Cl (centres undefined) | 0.501 µM [falling, full curve, poor fit] |  |
| CCN1CCCC1CNC(=O)c1ccc2c(c1)N(Cc1cccc(Cl)c1)C(=O)c1ccccc1S2(=O)=O (centres undefined) | 3.98 µM [falling, full curve, poor fit] |  |

| Compound | AC50 [1] | AC50 [2] |
| --- | --- | --- |
| Cc1ccccc1NC(=O)c1sc(NC(=O)COc2ccccc2)c(C#N)c1C | 8.2 µM [rising, partial curve] |  |
| COc1ccc2cc3cc(C(=O)NCc4cccs4)oc3nc2c1 | 0.0058 µM [rising, full curve, poor fit] |  |
| COC(=O)c1cccc(NC(=O)CN2CCN(c3ccc(OC)cc3)CC2)c1 | 25.1 µM [rising, single point] |  |
| CCC(=O)N(Cc1cc2cc(OC)ccc2[nH]c1=O)c1cc(C)ccc1C | 3.98 µM [falling, single point] |  |
| CCCn1c(-c2ccc[nH]c2=O)nc2cc(C)c(C)cc21 | 20 µM [falling, single point] |  |
| CCCCn1c(N)c(N(CCOC)C(=O)COC(=O)COc2cccc(C(C)=O)c2)c(=O)[nH]c1=O | 18.4 µM [rising, single point] |  |
| CCCC(=O)Nc1cccc(NC(=O)CN2CCN(c3ccccc3OC)CC2)c1 | 14.1 µM [rising, partial curve, poor fit] |  |
| Nc1cccc(-c2nc3ccc(C(=O)c4ccccc4)cc3[nH]2)c1 | 0.631 µM [falling, full curve, poor fit] | 12.6 µM [falling, partial curve, poor fit] |
| O=C(N/N=C/c1ccc2nccnc2c1)c1ccncc1 | 12.6 µM [falling, partial curve, poor fit] |  |
| O=C1CSC(=Nc2ccc(Cl)cc2)N1Cc1cccnc1 | 6.31 µM [rising, single point] |  |
| COc1cc(O)c(CCC(=O)c2ccc(OC)c(OC)c2)c(OC)c1 | 35.5 µM [falling, single point] |  |
| Cc1ccc(S(=O)(=O)NCCCN2CCOCC2)c(C)c1 | 5.62 µM [falling, single point] |  |
| COc1cccc(C(=O)Nc2sc3c(c2C(=O)O)CCCC3)c1 | 0.0316 µM [falling, full curve] |  |
| COc1ccccc1NC(=S)NCCSc1ccc(Cl)cc1 | 14.6 µM [falling, partial curve] |  |
| COc1ccc2cc(C#N)c(N3CCN(C(=O)c4ccccc4C)CC3)nc2c1 | 35.5 µM [falling, single point] |  |
| CC1(C)Cc2c(sc(NC(=O)c3ccccc3Cl)c2C(=O)O)CO1 | 7.08 µM [falling, partial curve] |  |
| CCC(=O)Nc1nnc(-c2ccco2)o1 | 29.1 µM [falling, single point] |  |
| CCOc1ccc2oc(C(=O)N(CC)CC(=O)Nc3ccc(NC(C)=O)cc3)c(C)c2c1 | 32.6 µM [falling, single point] |  |
| N#Cc1cnc2nc(SCc3ccccc3)nn2c1 | 12.6 µM [falling, single point] |  |
| CCc1ccccc1NC(=S)N(CCCN1CCOCC1)Cc1ccccn1 | 32.6 µM [falling, partial curve, poor fit] |  |
| O=C(Nc1cccc(NC(=O)c2cccs2)c1)c1ccc([N+](=O)[O-])o1 | 11.2 µM [falling, partial curve] |  |

| Compound | AC50 [1] | AC50 [2] |
| --- | --- | --- |
| Cc1csc2nc(O)c(C(=O)NCCCc3ccccc3)c(=O)n12 | 3.26 µM [falling, full curve] |  |
| COc1ccc2nc(NC(=O)C3=NN(c4ccccc4)C(=O)CC3)sc2c1 | 29.1 µM [falling, single point] |  |
| COc1cccc(OC)c1C(=O)Nc1cc2c(cc1N1CCOCC1)n(C)c(=O)n2C | 11.2 µM [rising, partial curve, poor fit] |  |
| N/C(=N\NC(=O)Nc1ccccc1)c1ccccn1 | 5.01 µM [falling, partial curve] |  |
| c1ccc(-c2nnc(-c3ccccc3)o2)cc1 | 14.1 µM [falling, partial curve] |  |
| CC(C)Cn1c(SC(C)C(=O)Nc2ccc3c(c2)OCCO3)nc2ccccc2c1=O (centres undefined) | 10 µM [falling, partial curve] |  |
| CC(C)CC(=O)Nc1ccc(C(=O)NNC(=O)C(c2ccccc2)c2ccccc2)cc1 | 5.8 µM [rising, partial curve, poor fit] |  |
| CCN(CC)S(=O)(=O)c1cc(F)ccc1OC | 29.1 µM [rising, single point] |  |
| COC(=O)c1sc(N)c(C(=O)OC)c1Cn1ncc(Cl)c(Cl)c1=O | 35.5 µM [falling, single point] |  |
| CCOC(=O)C1CCCN(C(=O)c2sc3nc(-c4ccc(OC)cc4)cn3c2C)C1 (centres undefined) | 10 µM [falling, partial curve] |  |
| O=C(CCC1CCCCC1)NCc1cccs1 | 2.91 µM [rising, partial curve, poor fit] |  |
| CCCCn1c(-c2csc3ccccc23)n[nH]c1=S | 5.8 µM [falling, single point] |  |
| N#C/C(=N\Nc1ccccc1Cl)C(=O)c1ccccc1 | 8.91 µM [falling, partial curve] |  |
| Cc1ccc([N+](=O)[O-])cc1NCC(=O)NN | 35.5 µM [falling, single point] |  |
| CC(Sc1nc2ccccc2c(=O)n1CCc1ccc(S(N)(=O)=O)cc1)C(=O)NC(N)=O (centres undefined) | 0.794 µM [falling, full curve, poor fit] |  |
| O=C(CNC(=O)c1ccc2c(c1)OCO2)N/N=C(Br)/C=C/c1ccccc1 | 8.2 µM [falling, partial curve] | 20.6 µM [falling, single point] |
| Cc1ccc(S(=O)(=O)N(C)C)cc1NC(=O)c1cncc(Br)c1 | 18.4 µM [falling, single point] |  |
| CCCN(CCC)CCCNC(=O)C1c2cc(OC)c(OC)cc2C(=O)N(C)C1c1cccs1 (centres undefined) | 2.59 µM [rising, partial curve] |  |
| CCC(C)NC(=O)CO/N=C/c1ccccc1OC(F)F (centres undefined) | 32.6 µM [rising, partial curve, poor fit] |  |
| CCN(CC)S(=O)(=O)c1cc(C(=O)NCCN2CCOCC2)ccc1Cl | 1.12 µM [falling, full curve] |  |
| c1ccc2cc(CNCc3cccc4ccccc34)ccc2c1 | 7.94 µM [rising, partial curve, poor fit] |  |

Of the compounds above, these contain a nitro group on carbon:

| Compound | AC50 [1] | AC50 [2] |
| --- | --- | --- |
| O=C(Nc1cccc(NC(=O)c2cccs2)c1)c1ccc([N+](=O)[O-])o1 | 11.2 µM [falling, partial curve] |  |
| Cc1ccc([N+](=O)[O-])cc1NCC(=O)NN | 35.5 µM [falling, single point] |  |

Source: PubChem BioAssay AID493014 (National Center for Advancing Translational Sciences (NCATS), 2011)
